Experimental data: PubChem BioAssay AID720505 (Drosophila RNAi Screening Center, 2013)
Test: 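Fly regulators or components of the CRAC channel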 (primary screen). System: Drosophila S2R+ cells. Reagent: long dsRNA against Drosophila genes. Challenge: thapsigargin (2 µM) in calcium-free buffer to empty internal stores, then 2 mM calcium added back. Measured: 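Fluo-4 signal in 384-well plates read on a FLIPR after thapsigargin (2 µM, calcium-free) store depletion and 2 mM calcium add-back; unnormalised mean endpoint per well; screen run twice, selected wells retested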. Scale: calcium signal and retest calcium signal: higher = more calcium entry after store depletion. Call rule: 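Knock-downs counted as hits when calcium entry dropped relative to STIM1 positive and Rho1 negative controls present on each plate; roughly 1500 genes called, with reductions of differing size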. Meaning of the calls: active = called as lowering calcium entry; inactive = not called.
The deposit covers about 20,000 reagents; shown is a random part of those that have a named target and a result. Over the whole deposit, about 2,100 (10%) are marked active. 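Raw plate signals without normalisation; calls rest on control-based scores that were not deposited; replicate 2 separates called from uncalled poorly.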 A number with no mark means an inactive call. The numbers tell different reagents against one gene apart. Names joined by + are all predicted targets of the reagent. Not given: the amount of reagent, the time to read-out.

| target gene | dsRNA no. | calcium signal, replicate 1 | calcium signal, replicate 2 | retest calcium signal, replicate 1 | retest calcium signal, replicate 2 |
| --- | --- | --- | --- | --- | --- |
| CG13003 | 1 | 121 | 113 | – | – |
| CG17684 | 1 | 116 | 91.8 | – | – |
| CG17684 | 2 | 68.5 (active) | 201 | – | – |
| Tsp47F (Tetraspanin 47F) | 1 | 108 | 132 | – | – |
| shakB (shaking B) | 1 | 64.3 | 68.8 | – | – |
| shakB (shaking B) | 2 | 55.7 (active) | 72.2 | 105 | 87.5 |
| shakB (shaking B) | 3 | 111 | 83.5 | – | – |
| shakB (shaking B) | 4 | 74.6 (active) | 139 | – | – |
| shakB (shaking B) | 5 | 63.4 | 94.2 | – | – |
| shakB (shaking B) | 6 | 95.9 | 85.7 | – | – |
| CG9084 | 1 | 101 | 110 | – | – |
| MED21 (Mediator complex subunit 21) | 1 | 76.9 (active) | 243 | – | – |
| Uros1 (Uroporphyrinogen III synthase 1) | 1 | 184 | 173 | – | – |
| CG11178 | 1 | 151 | 121 | – | – |
| CG11986 | 1 | 150 | 103 | – | – |
| CG1888 | 1 | 151 | 183 | – | – |
| comr (cookie monster) | 1 | 161 | 112 | – | – |
| Dark (Death-associated APAF1-related killer) | 1 | 68.6 (active) | 122 | – | – |
| CG15452 | 1 | 151 | 91.3 | – | – |
| CG1074 | 1 | 158 | 82.2 | 94.1 | 94 |
| bin (biniou) | 1 | 74.9 | 72.8 | – | – |
| CG30480 | 1 | 95.2 | 198 | – | – |
| CheB98a (Chemosensory protein A 98a) | 1 | 156 | 160 | – | – |
| Ptp36E (Protein tyrosine phosphatase 36E) | 1 | 55.3 (active) | 70.8 | – | – |
| CG14277 | 1 | 156 | 132 | – | – |
| CG2258 | 1 | 118 | 94.7 | – | – |
| CR11235 (pseudo) | 1 | 189 | 99 | – | – |
| Mt2 (Methyltransferase 2) | 1 | 99.7 | 142 | – | – |
| CG2202 | 1 | 177 | 129 | 103 | 104 |
| Cdc16 (Cell division cycle 16) | 1 | 204 | 118 | – | – |
| CG12177 | 1 | 111 | 82.4 | 7136 | 105 |
| CG12177 | 2 | 184 | 104 | – | – |
| CG31917 + Tfb5 | 1 | 142 | 87.6 | – | – |
| CG31917 + Tfb5 | 2 | 139 | 86.3 | – | – |
| CG15711 | 1 | 174 | 188 | – | – |
| Frq2 (Frequenin 2) | 1 | 116 | 118 | – | – |
| Nup133 (Nucleoporin 133kD) | 1 | 145 | 227 | – | – |
| CG10958 | 1 | 104 | 78.7 | – | – |
| CG42336 | 1 | 78.9 | 158 | – | – |
| CG42336 | 2 | 95.4 | 126 | – | – |
| CG42336 | 3 | 92.3 | 142 | 6779 | 131 |
| Rpn12 (Regulatory particle non-ATPase 12) | 1 | 89 | 135 | – | – |
| CG13855 | 1 | 183 | 148 | – | – |
| RpS29 + snoRNA:Psi18S-1275 | 1 | 67.7 (active) | 113 | – | – |
| Cdc37 (Cell division cycle 37) | 1 | 96.7 | 106 | – | – |
| CG15599 | 1 | 116 | 159 | – | – |
| AlaRS (Alanyl-tRNA synthetase) | 1 | 81.8 | 251 | – | – |
| CG2921 | 1 | 81.9 | 96 | – | – |
| Hrb27C (Heterogeneous nuclear ribonucleoprotein at 27C) | 1 | 78.4 | 159 | – | – |
| SH3PX1 (SH3 and PX domain containing 1) | 1 | 124 | 90.3 | – | – |
| CG34457 | 1 | 150 | 134 | – | – |
| tst + CG10375 | 1 | 252 | 322 | – | – |
| Lip1 (Lipase 1) | 1 | 62.3 (active) | 94.4 | – | – |
| Rtel1 (Regulator of telomere elongation helicase 1) | 1 | 200 | 155 | – | – |
| Atg10 (Autophagy-related 10) | 1 | 62.9 (active) | 77.1 | – | – |
| TTLL4B (Tubulin tyrosine ligase-like 4B) | 1 | 129 | 188 | – | – |
| NSD (Nuclear receptor binding SET domain protein) | 1 | 121 | 124 | – | – |
| RpLP0 (Ribosomal protein LP0) | 1 | 67.7 (active) | 122 | – | – |
| RpLP0 (Ribosomal protein LP0) | 2 | 49 (active) | 164 | – | – |
| Mur2B (Mucin related 2B) | 1 | 76 | 122 | – | – |
| Mur2B (Mucin related 2B) | 2 | 129 | 115 | – | – |
| achi (achintya) | 1 | 135 | 160 | – | – |
| Mic26-27 (MICOS subunit 26/27) | 1 | 146 | 235 | – | – |
| Parg (Poly(ADP-ribose) glycohydrolase) | 1 | 103 | 156 | – | – |
| Rlb1 | 1 | 102 | 106 | – | – |
| Imp (IGF-II mRNA-binding protein) | 1 | 205 | 145 | – | – |
| Imp (IGF-II mRNA-binding protein) | 2 | 103 | 192 | – | – |
| CG2217 + CG42740 | 1 | 97.7 | 163 | – | – |
| Vha36-1 (Vacuolar H[+] ATPase 36kD subunit 1) | 1 | 76.8 (active) | 87.6 | – | – |
| ckn (caskin) | 1 | 140 | 143 | – | – |
| CG30279 (retired record) | 1 | 72.9 | 147 | – | – |
| LSm7 (Like Sm 7) | 1 | 90.9 | 102 | – | – |
| CG15446 | 1 | 68.3 (active) | 126 | – | – |
| CG4951 | 1 | 108 | 179 | – | – |
| AstC-R1 (Allatostatin C receptor 1) | 1 | 96.3 | 199 | – | – |
| GEFmeso (Guanine nucleotide exchange factor in mesoderm) | 1 | 171 | 100 | – | – |
| GEFmeso (Guanine nucleotide exchange factor in mesoderm) | 2 | 176 | 151 | – | – |
| GEFmeso (Guanine nucleotide exchange factor in mesoderm) | 3 | 137 | 112 | – | – |
| dbo (diablo) | 1 | 115 | 221 | – | – |
| ZnT49B (Zinc transporter 49B) | 1 | 54.6 (active) | 193 | – | – |
| Kat60 (Katanin 60) | 1 | 110 | 87 | – | – |
| CG17260 | 1 | 88.1 | 217 | – | – |
| Snap29 (Synaptosomal-associated protein 29kDa) | 1 | 88.6 | 154 | – | – |
| CG4686 | 1 | 217 | 157 | – | – |
| sgg (shaggy) | 1 | 89.3 | 141 | – | – |
| CG18530 | 1 | 159 | 83.2 | – | – |
| CG15739 | 1 | 124 | 95.6 | – | – |
| Spps (Sp1-like factor for pairing sensitive-silencing) | 1 | 146 | 215 | – | – |
| Spps (Sp1-like factor for pairing sensitive-silencing) | 2 | 185 | 201 | – | – |
| CR33294 (pseudo) | 1 | 95.8 | 141 | – | – |
| CG13062 | 1 | 87.6 | 101 | – | – |
| CG6294 + CG6299 | 1 | 68.5 (active) | 131 | – | – |
| Aef1 (Adult enhancer factor 1) | 1 | 78.2 | 144 | – | – |
| HIPP1 (HP1 and insulator partner protein 1) | 1 | 94.7 | 119 | – | – |
| CG34283 | 1 | 93.7 | 105 | – | – |
| Sirt1 (Sirtuin 1) | 1 | 93 | 95.5 | – | – |
| Nubpl (NUBP iron-sulfur cluster assembly factor, mitochondrial) | 1 | 68.9 (active) | 177 | – | – |
| CG13601 | 1 | 210 | 296 | – | – |
| CG8401 | 1 | 194 | 171 | – | – |
| Alk (Anaplastic lymphoma kinase) | 1 | 146 | 147 | 112 | 108 |
| Alk (Anaplastic lymphoma kinase) | 2 | 102 | 128 | – | – |
| Pus10 (Pseudouridine synthase 10) | 1 | 87.3 | 128 | – | – |
| CG8032 | 1 | 132 | 178 | – | – |
| cry (cryptochrome) | 1 | 181 | 129 | – | – |
| CG1620 | 1 | 70.5 (active) | 221 | – | – |
| alpha-Est8 (alpha-Esterase-8) | 1 | 117 | 137 | – | – |
